In series [1] the target is T1, HNRNPH2 (UniProt P55795).
T1 sequence (looked up, limits assumed): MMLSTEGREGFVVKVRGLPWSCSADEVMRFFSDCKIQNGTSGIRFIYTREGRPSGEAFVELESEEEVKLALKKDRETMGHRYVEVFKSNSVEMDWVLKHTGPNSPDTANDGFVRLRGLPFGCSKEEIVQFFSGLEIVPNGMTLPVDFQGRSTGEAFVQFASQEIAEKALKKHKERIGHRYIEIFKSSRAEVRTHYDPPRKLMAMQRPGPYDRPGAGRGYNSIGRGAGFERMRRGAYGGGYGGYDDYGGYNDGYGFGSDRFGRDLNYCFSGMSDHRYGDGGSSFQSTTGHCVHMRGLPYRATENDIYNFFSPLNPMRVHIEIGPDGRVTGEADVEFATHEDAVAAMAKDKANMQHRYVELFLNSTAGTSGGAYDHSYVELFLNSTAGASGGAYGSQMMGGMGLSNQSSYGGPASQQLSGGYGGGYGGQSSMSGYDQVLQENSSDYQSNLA
Kind of series: FRET. As to conditions: 25 mM KCl, no change to 100 nM.

The next series concerns the target T2, HNRNPH1 qRRM2-3 (UniProt P31943).
T2 sequence (looked up, limits assumed): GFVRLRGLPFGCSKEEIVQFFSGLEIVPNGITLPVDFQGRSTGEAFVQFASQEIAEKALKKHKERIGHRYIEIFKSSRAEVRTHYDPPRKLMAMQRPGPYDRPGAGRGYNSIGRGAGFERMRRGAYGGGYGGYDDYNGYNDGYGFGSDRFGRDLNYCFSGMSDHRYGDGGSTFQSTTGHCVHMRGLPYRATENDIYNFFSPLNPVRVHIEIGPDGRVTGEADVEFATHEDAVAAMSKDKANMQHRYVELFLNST
Description: BLI. As to conditions: 150 mM KCl, value-to-RNA assignment from figure label order.

Series [2] deals with T1, HNRNPH2. Description: BLI. As to conditions: minimal binding (text also says no binding).
Another series has as its target T3, HNRNPH1 endogenous (UniProt P31943).
T3 sequence (looked up, limits assumed): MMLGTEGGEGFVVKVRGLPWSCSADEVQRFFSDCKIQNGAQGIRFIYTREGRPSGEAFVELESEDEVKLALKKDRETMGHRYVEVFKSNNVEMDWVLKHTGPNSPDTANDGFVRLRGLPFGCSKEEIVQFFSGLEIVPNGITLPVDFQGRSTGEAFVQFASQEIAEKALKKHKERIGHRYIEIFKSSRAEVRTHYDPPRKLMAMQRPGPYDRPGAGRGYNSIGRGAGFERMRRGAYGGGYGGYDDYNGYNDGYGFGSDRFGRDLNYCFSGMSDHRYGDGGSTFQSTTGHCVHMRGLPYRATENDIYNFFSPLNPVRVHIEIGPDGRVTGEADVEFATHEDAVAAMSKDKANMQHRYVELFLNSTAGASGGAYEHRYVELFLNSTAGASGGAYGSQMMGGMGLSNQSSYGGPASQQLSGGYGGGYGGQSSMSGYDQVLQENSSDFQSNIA
Kind of series: pull-down. The note with it: TC-32 whole-cell lysate; protein in an extract.

pKd: −log10 of the molar value. For at least one entry, the source does not settle the construct or the ends of the probe. For some assays here: Negatives hold for the conditions tested. Protein sequences can lack the tags named with them. For some assays here: Weaker means in comparison with the reference protein, sequence or condition of that experiment. For some assays here: Results from cells or extracts need not show a direct contact.

As for ACCGGGGCAGGGGAAGAGGGGGAUU [rG1-FRET], in the series with HNRNPH2 [1], the binding result is “no binding”.

For orientation: pKd means the Kd on a negative log10 scale, so that one unit is a factor of ten. A low value points to a high Kd. As to ACCGGGGCAGGGGAAGAGGGGGAUU [rG1], the pKd in the series with HNRNPH1 qRRM2-3 is 7.61. For the same sequence, the binding result in the series with HNRNPH2 [2] is reported as “binds more weakly”; with HNRNPH1 endogenous it was “binds”.

For the sequence “GGGCGGGGAGGAGGACGCGGUGGAAUGGG [rG3-FRET]”, the binding result with HNRNPH2 [1] was “no binding”.

In the series with HNRNPH1 qRRM2-3, GGGCGGGGAGGAGGACGCGGUGGAAUGGG [rG3] showed a pKd of 7.55. Also, the results for the binding result in the series with HNRNPH2 [2] and with HNRNPH1 endogenous were “binds more weakly” and “binds”, respectively.

The values are drawn from publication doi:10.1101/2022.04.18.488656.
